The results in this text go back to article PMC11067339.

Chains of the proteins cited; added tags and fusions are not shown.
UniProt Q8IUC6: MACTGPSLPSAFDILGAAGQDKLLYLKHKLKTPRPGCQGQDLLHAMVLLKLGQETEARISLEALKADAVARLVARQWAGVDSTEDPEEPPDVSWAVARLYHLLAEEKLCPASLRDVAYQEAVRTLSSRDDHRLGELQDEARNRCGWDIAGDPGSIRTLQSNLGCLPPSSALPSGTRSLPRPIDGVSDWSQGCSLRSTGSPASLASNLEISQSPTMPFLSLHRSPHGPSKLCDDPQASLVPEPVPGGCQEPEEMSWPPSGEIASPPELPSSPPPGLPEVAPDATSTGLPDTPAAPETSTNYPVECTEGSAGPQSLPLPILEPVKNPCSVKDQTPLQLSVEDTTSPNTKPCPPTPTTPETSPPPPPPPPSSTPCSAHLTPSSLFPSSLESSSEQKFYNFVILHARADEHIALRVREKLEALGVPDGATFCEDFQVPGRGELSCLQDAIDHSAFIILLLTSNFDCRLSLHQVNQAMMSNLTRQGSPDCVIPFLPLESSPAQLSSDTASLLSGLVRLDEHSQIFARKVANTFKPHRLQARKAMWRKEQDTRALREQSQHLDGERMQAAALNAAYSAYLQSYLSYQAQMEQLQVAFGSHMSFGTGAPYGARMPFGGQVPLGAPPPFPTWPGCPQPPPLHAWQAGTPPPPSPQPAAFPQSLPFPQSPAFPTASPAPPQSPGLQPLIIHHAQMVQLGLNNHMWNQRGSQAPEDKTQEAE

Experiment [1] concerns the target T1, Tripartite-motif protein-56 (TRIM56), endogenous (human (endogenous in HeLa)) (UniProt Q9BRZ2).
T1 sequence: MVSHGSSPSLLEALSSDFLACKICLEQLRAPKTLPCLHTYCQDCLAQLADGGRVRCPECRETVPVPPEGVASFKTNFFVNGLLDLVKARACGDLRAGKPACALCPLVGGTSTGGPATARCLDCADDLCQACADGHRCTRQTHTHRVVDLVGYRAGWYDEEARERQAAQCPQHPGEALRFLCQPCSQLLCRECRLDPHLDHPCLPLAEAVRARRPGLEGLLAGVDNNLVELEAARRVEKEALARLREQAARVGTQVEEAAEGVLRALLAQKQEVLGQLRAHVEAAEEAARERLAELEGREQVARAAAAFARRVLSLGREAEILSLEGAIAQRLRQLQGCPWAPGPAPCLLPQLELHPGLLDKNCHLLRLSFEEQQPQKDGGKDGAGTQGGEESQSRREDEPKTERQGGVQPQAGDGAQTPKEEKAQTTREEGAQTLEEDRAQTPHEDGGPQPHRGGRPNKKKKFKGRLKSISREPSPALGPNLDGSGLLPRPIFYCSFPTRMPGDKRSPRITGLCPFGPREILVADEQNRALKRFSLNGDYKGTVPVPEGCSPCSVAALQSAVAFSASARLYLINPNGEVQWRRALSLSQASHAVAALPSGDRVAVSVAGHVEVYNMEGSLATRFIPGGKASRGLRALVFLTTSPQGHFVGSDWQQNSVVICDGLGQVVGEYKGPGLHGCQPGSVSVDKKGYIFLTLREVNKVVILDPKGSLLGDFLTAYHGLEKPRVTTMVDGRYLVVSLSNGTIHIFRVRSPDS
Description: co-IP; endogenous proteins in HeLa cells, 0.5-2 h after poly-I:C stimulation; lysates precipitated with anti-TRIM56 pAb, blotted with anti-TRIF.

The target of experiment [2] is T1, Tripartite-motif protein-56 (TRIM56), endogenous (human (endogenous in HeLa)). Description: condition: only later than 2 h after poly-I:C stimulation; co-IP; endogenous proteins in HeLa cells, time points later than 2 h after poly-I:C stimulation; lysates precipitated with anti-TRIM56 pAb, blotted with anti-TRIF.

No constants are given. Whether binding was seen depends on the method and setting. Binding seen in cells or lysates may run through a third protein. Some entries that bind do so weakly or less than the wild type.

As to “TIR-domain-containing adapter-inducing IFN-β (TRIF), endogenous (from UniProt Q8IUC6 1-712)”, the values for the binding entry in experiment [1] and in experiment [2] were “binds” and “no binding”, respectively.
